{"source": "PubChem BioAssay AID1508588, Peter MacCallum Cancer Centre, 2020", "purpose": "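Genome-wide search for knock-downs that heighten vemurafenib action in melanoma cells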 (primary screen)", "system": "human WM266.4 melanoma cells (BRAF V600 mutant)", "reagent": "siRNA pool against human genes, 40 nM", "duration": "96 h from transfection to read-out", "treatment": "vemurafenib 300 nM (about IC25), added 48 h after transfection, for 48 h; comparison arm got DMSO vehicle only", "detection": "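Cell gain (DAPI nuclei at end minus before drug, mean of two replicates) and medium lactate by absorbance per cell, both as ratio to non-targeting siRNA, also grouped into fold-change classes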", "scale": "cell gain with vemurafenib: higher = more cell gain than with non-targeting siRNA; lactate per cell with vemurafenib: higher = more lactate made per cell", "active means": "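a knock-down counts as enhancing when its fold-change classes with vehicle and with vemurafenib, taken together, show a stronger drug effect on cell gain or lactate per cell; exact class pairs not stated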", "meaning of the calls": "active = enhances vemurafenib effect; inactive = no enhancement seen", "note": "Shown is one part, drawn at random, of about 18,000 reagents tested. Over the whole deposit, 790 (4.4%) are marked active. 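Calls rest on a combination of fold-change classes in drug and vehicle arms, not all shown here.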 Unmarked entries are inactive."}
{"target": "DNAJC5 (DnaJ heat shock protein family (Hsp40) member C5)", "PubChem SID": "SID135624435", "cell gain with vemurafenib": 0.66, "lactate per cell with vemurafenib": 1.02}
{"target": "FHL2 (four and a half LIM domains 2)", "PubChem SID": "SID134319881", "cell gain with vemurafenib": 0.63, "lactate per cell with vemurafenib": 0.7}
{"target": "RASGRF2 (Ras protein specific guanine nucleotide releasing factor 2)", "PubChem SID": "SID56479299", "cell gain with vemurafenib": 0.64, "lactate per cell with vemurafenib": 1.23}
{"target": "HOMER1 (homer scaffold protein 1)", "PubChem SID": "SID134320053", "cell gain with vemurafenib": 0.9, "lactate per cell with vemurafenib": 0.6}
{"target": "EXOSC2 (exosome component 2)", "PubChem SID": "SID134320943", "cell gain with vemurafenib": 0.82, "lactate per cell with vemurafenib": 0.56}
{"target": "TRIP4 (thyroid hormone receptor interactor 4)", "PubChem SID": "SID152152703", "cell gain with vemurafenib": 0.09, "lactate per cell with vemurafenib": 1.91}
{"target": "ZFC3H1 (zinc finger C3H1-type containing)", "PubChem SID": "SID152152323", "cell gain with vemurafenib": 0.08, "lactate per cell with vemurafenib": 1.04}
{"target": "TMEM120A (transmembrane protein 120A)", "PubChem SID": "SID134318856", "cell gain with vemurafenib": 0.49, "lactate per cell with vemurafenib": 1.25}
{"target": "DFFA (DNA fragmentation factor subunit alpha)", "PubChem SID": "SID135620828", "cell gain with vemurafenib": 0.72, "lactate per cell with vemurafenib": 1.17}
{"target": "CFAP44 (cilia and flagella associated protein 44)", "PubChem SID": "SID134321072", "cell gain with vemurafenib": 0.92, "lactate per cell with vemurafenib": 0.82}
{"target": "GBE1 (1,4-alpha-glucan branching enzyme 1)", "PubChem SID": "SID152147757", "cell gain with vemurafenib": 0.52, "lactate per cell with vemurafenib": 0.96}
{"target": "KCNF1", "PubChem SID": "SID134311645", "cell gain with vemurafenib": 0.64, "lactate per cell with vemurafenib": 0.52}
{"target": "TIMM10 (translocase of inner mitochondrial membrane 10)", "PubChem SID": "SID152151922", "cell gain with vemurafenib": 0.44, "lactate per cell with vemurafenib": 1.28}
{"target": "DUS3L (dihydrouridine synthase 3 like)", "PubChem SID": "SID134329426", "cell gain with vemurafenib": 0.06, "lactate per cell with vemurafenib": 1.72}
{"target": "F7 (coagulation factor VII)", "PubChem SID": "SID152149805", "cell gain with vemurafenib": 0.26, "lactate per cell with vemurafenib": 1.69}
{"target": "LALBA (lactalbumin alpha)", "PubChem SID": "SID135622356", "cell gain with vemurafenib": "0.7 (active)", "lactate per cell with vemurafenib": 0.48}
{"target": "CBR1 (carbonyl reductase 1)", "PubChem SID": "SID152156724", "cell gain with vemurafenib": 0.37, "lactate per cell with vemurafenib": 1.23}
{"target": "SPART (spartin)", "PubChem SID": "SID152151143", "cell gain with vemurafenib": 0.84, "lactate per cell with vemurafenib": 0.59}
{"target": "COLCA1 (colorectal cancer associated 1)", "PubChem SID": "SID152150973", "cell gain with vemurafenib": 0.94, "lactate per cell with vemurafenib": 0.7}
{"target": "RIPOR2 (RHO family interacting cell polarization regulator 2)", "PubChem SID": "SID134317816", "cell gain with vemurafenib": 0.31, "lactate per cell with vemurafenib": 0.84}
{"target": "ELMO1 (engulfment and cell motility 1)", "PubChem SID": "SID152152737", "cell gain with vemurafenib": 0.13, "lactate per cell with vemurafenib": 1.55}
{"target": "ABCA1 (ATP binding cassette subfamily A member 1)", "PubChem SID": "SID135620784", "cell gain with vemurafenib": 0.89, "lactate per cell with vemurafenib": 0.94}
{"target": "HDDC3 (HD domain containing 3)", "PubChem SID": "SID152155652", "cell gain with vemurafenib": 0.25, "lactate per cell with vemurafenib": 0.87}
{"target": "SQOR (sulfide quinone oxidoreductase)", "PubChem SID": "SID135621539", "cell gain with vemurafenib": 0.45, "lactate per cell with vemurafenib": 1.07}
{"target": "AKNAD1 (AKNA domain containing 1)", "PubChem SID": "SID152156008", "cell gain with vemurafenib": 0.59, "lactate per cell with vemurafenib": 0.86}
{"target": "PTP4A3 (protein tyrosine phosphatase 4A3)", "PubChem SID": "SID134312014", "cell gain with vemurafenib": 0.87, "lactate per cell with vemurafenib": 1.15}
{"target": "SOCS3 (suppressor of cytokine signaling 3)", "PubChem SID": "SID135620806", "cell gain with vemurafenib": 0.4, "lactate per cell with vemurafenib": 2.18}
